Earlier results as cited in patent US20250319088A1, “DAPRODUSTAT FOR REDUCING FATIGUE IN A SUBJECT WITH ANEMIA ASSOCIATED WITH CHRONIC KIDNEY DISEASE” (GlaxoSmithKline Intellectual Property (No.2) Limited, priority 2021, published 2025).
At least one structure is not confirmed: it was looked up by name or label, or the drawing left a doubt.

Test system: patients with anemia and non-dialysis dependent chronic kidney disease
Conditions: over 12 weeks; 95% CI 0.44 to 1.47; cited from earlier work

SMILES: Cc1nc(C(=O)NCC(=O)O)c(O)c2ccc(Oc3ccccc3)cc12 [roxadustat]
- least squares mean difference in SF-36 Vitality score (0-100 scoring) compared with placebo: 0.96 points
